Data as given in PubChem BioAssay AID1259308 (NCATS, 2017)

Screen: 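Candidate targets for better recombinant protein yield in mammalian cells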 (primary screen)
Cell system: human HEK293 embryonic kidney cells stably expressing firefly luciferase (HEK-CMV-Luc2-Hygro)
Knock-down reagent: single siRNA against human genes, 0.8 pmol siRNA per well
Timing: 72 h
Read-out: 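Luciferase light (ONE-Glo) measured on one replicate plate set and viability (CellTiter-Glo) on the other, scaled to a negative control siRNA, with robust z-scores and luciferase per cell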
Reading the numbers: total luciferase, z-score and total luciferase, % of control: higher = more reporter protein produced
Active means: 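An siRNA counts as active if its total luciferase robust z-score exceeds 3; genes with two or more such siRNAs out of three were retested with fresh siRNAs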
Meaning of the calls: active = raised luciferase; inactive = no rise
In all, the deposit lists about 59,000 reagents; below is a part drawn at random. About 1,510 of them (2.6%) were called active. 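Calls use total luciferase alone and ignore viability, so some active siRNAs may act by altering cell number.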 Reagents against one gene are numbered here. Not all columns of the deposit are shown. Reagent sequences are not shown.

With knock-down of OGFOD3 #1, the record shows total luciferase, z-score 1.31; total luciferase, % of control 108; inactive.
With knock-down of OGFOD3 #2 the results were total luciferase, z-score -0.549; total luciferase, % of control 71; inactive.
After knock-down of OGFOD3 #3, the record shows total luciferase, z-score -0.18; total luciferase, % of control 78.3; inactive.
Against A1BG #1, the values are total luciferase, z-score -0.579; total luciferase, % of control 70.4; inactive.
A1BG #2 scored total luciferase, z-score 0.4; total luciferase, % of control 89.8; inactive.
For A1BG #3, the values are total luciferase, z-score -0.19; total luciferase, % of control 78.1; inactive.
Depletion of H2BC17 #1 came out at: total luciferase, z-score 0.749; total luciferase, % of control 96.8; inactive.
Against H2BC17 #2, the values are total luciferase, z-score 0.00911; total luciferase, % of control 82.1; inactive.
Depletion of H2BC17 #3 resulted in: total luciferase, z-score -1.03; total luciferase, % of control 61.5; inactive.
For FAHD2B #1, the entry reads total luciferase, z-score -0.66; total luciferase, % of control 68.8; inactive.
Against FAHD2B #2, the entry reads total luciferase, z-score 2.02; total luciferase, % of control 122; inactive.
Knock-down of FAHD2B #3 gave: total luciferase, z-score -1.02; total luciferase, % of control 61.5; inactive.
SRM #1 scored total luciferase, z-score 2.28; total luciferase, % of control 127; inactive.
With knock-down of SRM #2, the record shows total luciferase, z-score -0.71; total luciferase, % of control 67.8; inactive.
Against SRM #3 the deposit lists total luciferase, z-score -1.39; total luciferase, % of control 54.3; inactive.
Knock-down of CCDC144BP #1 gave: total luciferase, z-score 0.856; total luciferase, % of control 98.9; inactive.
After knock-down of CCDC144BP #2, the screen gave total luciferase, z-score -1.51; total luciferase, % of control 51.9; inactive.
Silencing of CCDC144BP #3 gave: total luciferase, z-score -0.323; total luciferase, % of control 75.5; inactive.
SPEN #1 scored total luciferase, z-score -0.563; total luciferase, % of control 70.7; inactive.
With knock-down of SPEN #2 the results were total luciferase, z-score -0.884; total luciferase, % of control 64.3; inactive.
With knock-down of SPEN #3, the screen gave total luciferase, z-score -1.33; total luciferase, % of control 55.4; inactive.
METTL16 #1 gave total luciferase, z-score 1.24; total luciferase, % of control 107; inactive.
METTL16 #2 showed total luciferase, z-score -0.234; total luciferase, % of control 77.2; inactive.
Knock-down of METTL16 #3 gave: total luciferase, z-score 1.22; total luciferase, % of control 106; inactive.
For TMEM68 #1, the entry reads total luciferase, z-score 0.449; total luciferase, % of control 90.8; inactive.
Knock-down of TMEM68 #2 gave: total luciferase, z-score -0.737; total luciferase, % of control 67.2; inactive.
Depletion of TMEM68 #3 resulted in: total luciferase, z-score 0.832; total luciferase, % of control 98.4; inactive.

Part of the list above, set out differently.
{"target gene": "SPEN", "siRNA no.": 2, "total luciferase, z-score": -0.884, "total luciferase, % of control": 64.3, "Call": "inactive"}
{"target gene": "SPEN", "siRNA no.": 3, "total luciferase, z-score": -1.33, "total luciferase, % of control": 55.4, "Call": "inactive"}
{"target gene": "METTL16", "siRNA no.": 1, "total luciferase, z-score": 1.24, "total luciferase, % of control": 107, "Call": "inactive"}
{"target gene": "METTL16", "siRNA no.": 2, "total luciferase, z-score": -0.234, "total luciferase, % of control": 77.2, "Call": "inactive"}

Next results:
Depletion of ASCC2 #1 gave: total luciferase, z-score -2.09; total luciferase, % of control 40.4; inactive.
ASCC2 #2 gave total luciferase, z-score -0.297; total luciferase, % of control 76; inactive.
After knock-down of ASCC2 #3, the record shows total luciferase, z-score -1.31; total luciferase, % of control 55.8; inactive.
Knock-down of EIF4G2 #1 came out at: total luciferase, z-score 0.0291; total luciferase, % of control 82.5; inactive.
Knock-down of EIF4G2 #2 gave: total luciferase, z-score 0.186; total luciferase, % of control 85.6; inactive.
After knock-down of EIF4G2 #3 the results were total luciferase, z-score 1.81; total luciferase, % of control 118; inactive.
After knock-down of VIPAS39 #1, the screen gave total luciferase, z-score -1.51; total luciferase, % of control 51.8; inactive.
With knock-down of VIPAS39 #2 the results were total luciferase, z-score -0.487; total luciferase, % of control 72.2; inactive.
VIPAS39 #3 scored total luciferase, z-score 1.41; total luciferase, % of control 110; inactive.
Knock-down of CDKN2B #1 came out at: total luciferase, z-score -0.366; total luciferase, % of control 74.6; inactive.
Silencing of CDKN2B #2 gave: total luciferase, z-score -0.543; total luciferase, % of control 71.1; inactive.
CDKN2B #3 showed total luciferase, z-score 0.304; total luciferase, % of control 87.9; inactive.
GUCD1 #1 gave total luciferase, z-score -0.638; total luciferase, % of control 69.2; inactive.
GUCD1 #2 showed total luciferase, z-score 0.307; total luciferase, % of control 88; inactive.
GUCD1 #3 showed total luciferase, z-score -0.9; total luciferase, % of control 64; inactive.
